This note sets out measurements from patent publication US20140314790A1, “CASPASE 9 INHIBITION AND BRI2 PEPTIDES FOR TREATING DEMENTIA” (ALBERT EINSTEIN COLLEGE OF MEDICINE OF YESHIVA UNIVERSITY, priority 2011, published 2014).

Amino acid sequences for entries named in this document (tags omitted). Residues count along the entry.
UniProt P05067, residues 18-770: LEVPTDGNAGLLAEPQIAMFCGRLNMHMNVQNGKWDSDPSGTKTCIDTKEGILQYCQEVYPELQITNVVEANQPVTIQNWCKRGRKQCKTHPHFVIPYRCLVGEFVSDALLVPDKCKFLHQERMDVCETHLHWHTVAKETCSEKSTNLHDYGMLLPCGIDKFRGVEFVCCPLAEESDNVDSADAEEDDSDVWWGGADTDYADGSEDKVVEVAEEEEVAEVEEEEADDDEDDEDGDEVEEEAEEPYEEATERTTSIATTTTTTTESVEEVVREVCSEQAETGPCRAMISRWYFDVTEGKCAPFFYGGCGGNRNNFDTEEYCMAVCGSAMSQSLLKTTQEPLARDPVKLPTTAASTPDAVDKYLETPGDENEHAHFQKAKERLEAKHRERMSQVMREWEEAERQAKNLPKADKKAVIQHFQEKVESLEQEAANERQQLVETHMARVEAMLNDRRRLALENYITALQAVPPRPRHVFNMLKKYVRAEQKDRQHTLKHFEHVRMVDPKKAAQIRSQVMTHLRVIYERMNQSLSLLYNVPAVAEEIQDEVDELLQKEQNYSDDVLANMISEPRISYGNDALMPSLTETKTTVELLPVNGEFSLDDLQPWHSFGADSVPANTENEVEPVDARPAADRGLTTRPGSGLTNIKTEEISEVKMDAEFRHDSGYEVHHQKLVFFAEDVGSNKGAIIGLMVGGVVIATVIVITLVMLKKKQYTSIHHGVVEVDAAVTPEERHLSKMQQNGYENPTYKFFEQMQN
UniProt P12023, residues 18-770: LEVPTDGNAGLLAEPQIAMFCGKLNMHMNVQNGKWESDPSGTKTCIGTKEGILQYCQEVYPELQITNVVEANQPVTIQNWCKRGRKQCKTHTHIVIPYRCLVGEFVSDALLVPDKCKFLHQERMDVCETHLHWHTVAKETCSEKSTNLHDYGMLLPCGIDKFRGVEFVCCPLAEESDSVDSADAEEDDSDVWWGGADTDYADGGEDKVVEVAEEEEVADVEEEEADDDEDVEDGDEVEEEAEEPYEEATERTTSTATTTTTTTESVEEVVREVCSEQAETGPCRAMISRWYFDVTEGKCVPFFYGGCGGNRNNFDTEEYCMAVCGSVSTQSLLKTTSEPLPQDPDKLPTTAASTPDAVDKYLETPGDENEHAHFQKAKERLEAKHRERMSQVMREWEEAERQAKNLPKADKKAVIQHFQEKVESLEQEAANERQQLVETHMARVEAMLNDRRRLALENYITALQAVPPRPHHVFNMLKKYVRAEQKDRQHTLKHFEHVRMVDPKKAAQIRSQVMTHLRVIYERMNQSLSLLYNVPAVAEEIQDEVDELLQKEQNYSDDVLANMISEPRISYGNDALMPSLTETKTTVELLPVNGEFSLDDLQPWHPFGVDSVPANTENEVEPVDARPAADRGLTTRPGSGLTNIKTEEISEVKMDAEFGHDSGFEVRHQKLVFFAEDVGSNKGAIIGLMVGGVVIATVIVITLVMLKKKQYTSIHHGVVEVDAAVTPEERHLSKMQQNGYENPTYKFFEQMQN

These are yes or no findings as the source states them, for the method shown. Some results given as binding are weak or reduced against the parent protein; the word gives no strength. For some assays here: Sequences can lack the tags named with a protein.

Test [1] concerns the target amyloid precursor protein (APP), transfected into HeLa or HEK293 cells (UniProt P05067). Description: α-Flag IP from HeLa/APP cells incubated with Flagged peptides, Western blot. On the technique in general: In western blotting, separated proteins are transferred to a membrane and probed.
Test [2] shares this target. Description: α-Flag-agarose precipitation from HeLa-APP cells cultured 2 hrs with peptide, elution with Flag peptide, Western blot.
Test [3] has as its target endogenous APP of mouse brain cells (mouse) (UniProt P12023). Description: α-Flag IP from cultured mouse brain cells incubated with peptide, Western blot.
In test [4] the target is amyloid precursor protein (APP), transfected into HeLa or HEK293 cells (UniProt P05067). Description: surface-biotinylated HeLa-APP cells, α-Flag IP, then streptavidin-bead precipitation, Western blot.
Test [5] has the same target. Kind of test: competition with 40 µM N3-2A-F on HeLa/APP cells, α-Flag IP, Western blot.

As to DAVYYCGLKY (peptide, not shown: small tags and cut ends) [N3-2A fused to a C-terminal Flag epitope (N3-2A-F)], the binding result in test [1], in test [2], in test [3] and in test [4] was “binds” throughout.
For the molecule DAVYYCGLKY [N3-2A, Modulator of β-cleavage of APP (MoBA)], in test [5], the binding entry was “binds”.
